In the supplement of paper PMC10735217:
Some of the results follow. This data set is noisy: repeats of one test often differ as much as different tests do.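 Human kidney-derived cells stably carry a construct in which eight TEAD-binding elements drive luciferase, measured by luminescence in a drug-repurposing library screen. A hit is any compound whose signal exceeds the plate mean by more than five robust Z scores.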

Test system: HEK293A TEAD-LUC reporter
Assay: TEAD-luciferase reporter activity (YAP activation), robust Z score vs plate; higher = stronger YAP/TEAD activation
Settings: 24 h

| Compound | TEAD-luciferase reporter activity (compound concentration: 200 nM) | TEAD-luciferase reporter activity (compound concentration: 2 uM) | TEAD-luciferase reporter activity (compound concentration: 10 uM) |
| --- | --- | --- | --- |
| CCC(Cc1c(I)cc(I)c(N)c1I)C(=O)O (centres undefined) | inactive: 2.05 | inactive: 1.57 | inactive: -1.41 |
| COc1ccc([C@@H]2Sc3cc(Cl)ccc3N(CCCN3CCN(c4ccccc4OC)CC3)C(=O)[C@@H]2OC(C)=O)cc1 | inactive: -1.61 | inactive: 0.908 | inactive: 0.37 |
| CCCCC(C)(C)[C@H](O)/C=C/[C@H]1C=CC(=O)[C@@H]1C/C=C\CCCC(=O)O | inactive: -0.0982 | inactive: 0.957 | inactive: 0.544 |
| CC(=O)NC[C@H]1CN(c2cc(F)c(-c3ccc(C(C)=O)cc3)c(F)c2)C(=O)O1 | inactive: 1.67 | inactive: -0.544 | inactive: 3.18 |
| Cn1c([N+](=O)[O-])cnc1C(O)c1cc(C(C)(C)C)ccc1O (centres undefined) | inactive: -1.55 | inactive: -1.6 | inactive: -0.597 |
| Cc1ccccc1/C=C/C(N)=O | inactive: 2.39 | inactive: 2.6 | inactive: -0.0545 |
| NS(=O)(=O)NC[C@H]1COc2cc(Cl)ccc2O1 | inactive: 0.14 | inactive: -0.825 | inactive: -0.152 |
| CONC(=O)Nc1ccc(-c2sc3c(c2CN(C)Cc2ccccc2)c(=O)n(-c2ccccc2)c(=O)n3Cc2c(F)cccc2F)cc1 [Sufugolix] | inactive: 0.423 | inactive: -1.39 | inactive: -1.22 |
| CC(C)(O/N=C(\C(=O)N[C@@H]1C(=O)N2C(C(=O)[O-])=C(C[N+]3(CCNC(=O)c4ccc(O)c(O)c4Cl)CCCC3)CS[C@H]12)c1csc(N)n1)C(=O)O [Cefiderocol] | inactive: -1.35 | – | inactive: -0.67 |
| CC(=O)Nc1cccc(O)c1 | inactive: -0.755 | inactive: 0.141 | inactive: -1.15 |
| Cc1ccc2c(Br)cc(Br)c(OC(=O)c3ccccc3)c2n1 | inactive: 0.965 | inactive: -0.143 | inactive: 1.38 |
| COc1cc(C(=O)NS(=O)(=O)c2ccccc2C)ccc1Cc1cn(C)c2ccc(NC(=O)OC3CCCC3)cc12 [zafirlukast] | – | inactive: -1.5 | – |
| COc1cc(C(=O)NS(=O)(=O)c2ccccc2C)ccc1Cc1cn(C)c2ccc(NC(=O)OC3CCCC3)cc12 | inactive: -1.38 | – | inactive: -0.138 |
| NCC(=O)Nc1ccc(-n2nc(C(F)(F)F)cc2-c2ccc3c(ccc4ccccc43)c2)cc1 | inactive: -0.785 | inactive: -0.868 | inactive: 1.27 |
| Cc1[nH]c2ccccc2c1CCNCc1ccc(/C=C/C(=O)NO)cc1 [Panobinostat] | active: 61.7 | – | active: 39.6 |
| Cc1[nH]c2ccccc2c1CCNCc1ccc(/C=C/C(=O)NO)cc1 [Panobinostat lactate] | – | active: 27 | – |
| CN1C(=O)CC(c2ccccc2)C1=O (centres undefined) [Phensuximide] | inactive: 0.584 | inactive: -1.87 | inactive: 4.85 |
| COc1ccc(CN2CCCCC23Cc2ccccc2CNC3=O)cc1OC (centres undefined) | inactive: -2.37 | – | inactive: -0.0658 |
| CCN(CC)CCOC(=O)C(Cc1cccc2ccccc12)CC1CCCO1 (centres undefined) [naftidrofuryl SR] | – | inactive: -1.18 | – |

| Compound | TEAD-luciferase reporter activity (compound concentration: 200 nM) | TEAD-luciferase reporter activity (compound concentration: 2 uM) | TEAD-luciferase reporter activity (compound concentration: 10 uM) |
| --- | --- | --- | --- |
| CCN(CC)CCOC(=O)C(Cc1cccc2ccccc12)CC1CCCO1 (centres undefined) [naftidrofuryl SR, Ethypharm] | inactive: 0.0504 | – | inactive: 3.92 |
| CCCCNc1cc(C(=O)O)cc(S(N)(=O)=O)c1Oc1ccccc1 [bumetanide] | – | inactive: 2.24 | – |
| CCCCNc1cc(C(=O)O)cc(S(N)(=O)=O)c1Oc1ccccc1 | inactive: -1.65 | – | inactive: 0.354 |
| O=C(c1cc(C(F)(F)F)cc(C(F)(F)F)c1)N1CCN(Cc2n[nH]nc2CN2CCOCC2)C[C@H]1Cc1c[nH]c2ccccc12 | inactive: 1.16 | inactive: 1.07 | inactive: 0.0577 |
| COc1cc2[nH]c(C)c(CCN3CCN(c4ccccc4)CC3)c2cc1OC [Oxypertine] | inactive: -0.456 | inactive: -0.487 | inactive: -1.22 |
| O=C(NC1CCN(CCCCC2(C(=O)NCC(F)(F)F)c3ccccc3-c3ccccc32)CC1)c1ccccc1-c1ccc(C(F)(F)F)cc1 [Lomitapide] | inactive: 0.446 | inactive: -0.957 | inactive: 1.08 |
| CCCCOC(=O)COc1ccc(C(=O)CNC(=O)c2cc3c(s2)CCNC3)cc1OCC(=O)OCCCC | inactive: -1.78 | inactive: -1.28 | inactive: 0.523 |
| CC(C)(C(=O)NC1C2CC3CC1CC(C(N)=O)(C3)C2)N1CCN(c2ccc(C(F)(F)F)cn2)CC1 (centres undefined) | inactive: -0.126 | inactive: -1.33 | inactive: 0.658 |
| CC(C)=CCC[C@](C)(O)[C@H]1CC[C@]2(C)[C@@H]1[C@H](O)C[C@@H]1[C@@]3(C)CC[C@H](O)C(C)(C)[C@@H]3CC[C@]12C [20(S)-Protopanaxadiol, one component of PBD-2131] | inactive: -0.547 | inactive: -0.0502 | inactive: 0.0761 |
| CCOc1c([C@H](C)n2nc(C)c3c(N)ncnc32)cc(Cl)c(F)c1[C@@H]1CNC(=O)C1 | inactive: -0.619 | inactive: -1.24 | inactive: 0.995 |
| CCC(CC)CNC(=O)Cn1cccc(NC(=O)[C@H](CC/C=C/C(=O)OC)NC(=O)c2cncn2C)c1=O | inactive: -0.721 | inactive: -0.461 | inactive: 0.493 |
| Cc1ccc(F)cc1C(=O)Nc1ccc(C(=O)N2Cc3cccn3Cc3ccccc32)c(Cl)c1 [lixivaptan] | inactive: -0.333 | inactive: 0.248 | inactive: 0.7 |
| Cc1ccc(Cl)c(OCC(O)CNC(C)(C)C)c1 (centres undefined) [Bupranolol] | inactive: 1.09 | inactive: 2.32 | inactive: 1.93 |
| CCCCOCCOC(=O)c1cccnc1 | inactive: -2.08 | inactive: -0.857 | inactive: -0.395 |
| CCCC(=O)O [Sodium butyrate] | – | inactive: -0.969 | – |
| CCCC(=O)O [Sodium n-butyrate] | inactive: -1.18 | – | inactive: -1.04 |
| CC[C@@]1(O)C(=O)OCc2c1cc1n(c2=O)Cc2c-1nc1ccccc1c2CC[Si](C)(C)C [Cositecan] | inactive: -1.82 | – | inactive: -1.62 |
| CCCCCCCCC/C(=C\C1=C(C)C(=O)C(OC)=C(OC)C1=O)C(=O)O | inactive: -1.42 | inactive: 0.774 | inactive: 0.675 |
| O=C(O)CCc1c[nH]c2ccccc12 [indole-3-propionic acid] | – | inactive: -1.15 | – |

Part of the list above, as comma-separated lines:
Compound,TEAD-luciferase reporter activity (compound concentration: 200 nM),TEAD-luciferase reporter activity (compound concentration: 2 uM),TEAD-luciferase reporter activity (compound concentration: 10 uM)
CN1C(=O)CC(c2ccccc2)C1=O (centres undefined) [Phensuximide],inactive: 0.584,inactive: -1.87,inactive: 4.85
CCCCNc1cc(C(=O)O)cc(S(N)(=O)=O)c1Oc1ccccc1 [bumetanide],–,inactive: 2.24,–

Further entries follow:

| Compound | TEAD-luciferase reporter activity (compound concentration: 200 nM) | TEAD-luciferase reporter activity (compound concentration: 2 uM) | TEAD-luciferase reporter activity (compound concentration: 10 uM) |
| --- | --- | --- | --- |
| O=C(O)CCc1c[nH]c2ccccc12 [indole-3-propionic acid, Intellect Neurosciences] | inactive: 2.08 | – | inactive: -1.93 |
| O=C(Nc1ccc(Cl)cc1)Nc1ccc(Cl)c(C(F)(F)F)c1 | inactive: -1.51 | inactive: -1.19 | inactive: 0.229 |
| Cn1cnc([N+](=O)[O-])c1C[N+](C)(C)CC=CC(=O)Nc1cc2c(Nc3ccc(Cl)c(Br)c3)ncnc2cn1 [Tarloxotinib Bromide] | inactive: -1.08 | inactive: -1.19 | inactive: -1.34 |
| CCCCc1nc2cc(/C=C/C(=O)NO)ccc2n1CCN(CC)CC [Pracinostat (SB939)] | active: 35.8 | – | active: 35 |
| CCCCc1nc2cc(/C=C/C(=O)NO)ccc2n1CCN(CC)CC [pracinostat] | – | active: 23.8 | – |
| CNC(=O)[C@H](Cc1ccccc1)NC(=O)[C@@H](CC(C)C)S[C@@H]1CN(C(=O)NCCN2C(=O)c3ccccc3C2=O)C[C@@H]1S | inactive: -0.453 | inactive: -1.23 | inactive: -0.304 |
| O=C(CCCN1CC2CCC(CC2)C1)c1ccc(F)cc1 [nonaperone] | inactive: 3.53 | inactive: 3.96 | inactive: -0.0342 |
| CCCCc1nc(C)n(Cc2sccc2C(=O)OC)c(=O)c1Cc1ccc(-c2ccccc2-c2nnn[nH]2)cc1 [Milfasartan] | inactive: -0.599 | inactive: 0.188 | inactive: -1.9 |
| Cc1cc2ncc(C(=O)N3CCC(N4CCCC4)CC3)cn2n1 | inactive: 3.17 | – | inactive: 1.06 |
| NCc1ccc(S(N)(=O)=O)cc1 [mafenide acetate] | – | inactive: 0.0641 | – |
| NCc1ccc(S(N)(=O)=O)cc1 | inactive: -1.64 | – | inactive: -0.87 |
| O=C(O)Cn1c(=O)c(=O)[nH]c2cc([N+](=O)[O-])c(-n3ccnc3)cc21 | inactive: -1.16 | inactive: -0.966 | inactive: -0.703 |
| CCC1OC(=O)C(C)C(OC2CC(C)(OC)C(O)C(C)O2)C(C)C(OC2OC(C)CC(N(C)C)C2O)C(C)(O)CC(C)C2NC(COCCOC)OC(C2C)C1(C)O (centres undefined) [dirithromycin] | inactive: -1.15 | inactive: 3.82 | inactive: -0.918 |
| COc1ccc(CC2c3cc(OC)c(OC)cc3CC[N+]2(C)CCC(=O)OCCCCCOC(=O)CC[N+]2(C)CCc3cc(OC)c(OC)cc3C2Cc2ccc(OC)c(OC)c2)cc1OC (centres undefined) [cisatracurium besylate] | – | inactive: -0.775 | – |
| COc1ccc(CC2c3cc(OC)c(OC)cc3CC[N+]2(C)CCC(=O)OCCCCCOC(=O)CC[N+]2(C)CCc3cc(OC)c(OC)cc3C2Cc2ccc(OC)c(OC)c2)cc1OC (centres undefined) | active: 7.42 | – | inactive: -0.0962 |
| CN[C@H]1CN(c2ccc3c(=O)c(C(=O)O)cn(-c4nccs4)c3n2)C[C@@H]1OC [vosaroxin] | inactive: -0.677 | inactive: -1.66 | inactive: 0.0145 |
| C[C@]12CC[C@@H]3c4ccc(OC(=O)c5ccccc5)cc4CC[C@H]3[C@@H]1CC[C@@H]2O [Estradiol benzoate] | – | inactive: -1.05 | – |
| C[C@]12CC[C@@H]3c4ccc(OC(=O)c5ccccc5)cc4CC[C@H]3[C@@H]1CC[C@@H]2O | inactive: 1.52 | – | inactive: -1.04 |
